Percent effect of library compounds

The chains behind the UniProt entries cited, without tags or fusion partners. Residues count along the entry.
UniProt P9WFT3, whole entry: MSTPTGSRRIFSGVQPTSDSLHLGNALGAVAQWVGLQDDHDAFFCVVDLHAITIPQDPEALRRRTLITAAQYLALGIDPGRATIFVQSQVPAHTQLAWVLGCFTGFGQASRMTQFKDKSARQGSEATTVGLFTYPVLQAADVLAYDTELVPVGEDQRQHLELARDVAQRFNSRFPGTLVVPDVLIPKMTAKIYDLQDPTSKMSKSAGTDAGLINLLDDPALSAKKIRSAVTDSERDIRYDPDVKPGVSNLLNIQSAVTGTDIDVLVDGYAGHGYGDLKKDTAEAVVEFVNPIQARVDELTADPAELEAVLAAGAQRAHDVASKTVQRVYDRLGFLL
UniProt P9WPC5, whole entry: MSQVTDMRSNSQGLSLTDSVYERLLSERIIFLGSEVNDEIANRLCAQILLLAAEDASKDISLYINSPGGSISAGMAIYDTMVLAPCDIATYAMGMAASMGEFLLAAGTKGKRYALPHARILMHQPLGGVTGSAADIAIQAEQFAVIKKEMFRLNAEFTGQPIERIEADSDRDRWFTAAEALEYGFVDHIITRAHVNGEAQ
UniProt P9WPC3, whole entry partner: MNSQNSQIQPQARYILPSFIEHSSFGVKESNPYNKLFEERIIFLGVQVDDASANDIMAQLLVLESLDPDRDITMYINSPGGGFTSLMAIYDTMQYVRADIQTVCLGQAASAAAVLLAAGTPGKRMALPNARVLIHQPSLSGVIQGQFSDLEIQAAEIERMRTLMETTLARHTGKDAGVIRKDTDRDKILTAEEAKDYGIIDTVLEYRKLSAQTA
UniProt I6X8D2, whole entry: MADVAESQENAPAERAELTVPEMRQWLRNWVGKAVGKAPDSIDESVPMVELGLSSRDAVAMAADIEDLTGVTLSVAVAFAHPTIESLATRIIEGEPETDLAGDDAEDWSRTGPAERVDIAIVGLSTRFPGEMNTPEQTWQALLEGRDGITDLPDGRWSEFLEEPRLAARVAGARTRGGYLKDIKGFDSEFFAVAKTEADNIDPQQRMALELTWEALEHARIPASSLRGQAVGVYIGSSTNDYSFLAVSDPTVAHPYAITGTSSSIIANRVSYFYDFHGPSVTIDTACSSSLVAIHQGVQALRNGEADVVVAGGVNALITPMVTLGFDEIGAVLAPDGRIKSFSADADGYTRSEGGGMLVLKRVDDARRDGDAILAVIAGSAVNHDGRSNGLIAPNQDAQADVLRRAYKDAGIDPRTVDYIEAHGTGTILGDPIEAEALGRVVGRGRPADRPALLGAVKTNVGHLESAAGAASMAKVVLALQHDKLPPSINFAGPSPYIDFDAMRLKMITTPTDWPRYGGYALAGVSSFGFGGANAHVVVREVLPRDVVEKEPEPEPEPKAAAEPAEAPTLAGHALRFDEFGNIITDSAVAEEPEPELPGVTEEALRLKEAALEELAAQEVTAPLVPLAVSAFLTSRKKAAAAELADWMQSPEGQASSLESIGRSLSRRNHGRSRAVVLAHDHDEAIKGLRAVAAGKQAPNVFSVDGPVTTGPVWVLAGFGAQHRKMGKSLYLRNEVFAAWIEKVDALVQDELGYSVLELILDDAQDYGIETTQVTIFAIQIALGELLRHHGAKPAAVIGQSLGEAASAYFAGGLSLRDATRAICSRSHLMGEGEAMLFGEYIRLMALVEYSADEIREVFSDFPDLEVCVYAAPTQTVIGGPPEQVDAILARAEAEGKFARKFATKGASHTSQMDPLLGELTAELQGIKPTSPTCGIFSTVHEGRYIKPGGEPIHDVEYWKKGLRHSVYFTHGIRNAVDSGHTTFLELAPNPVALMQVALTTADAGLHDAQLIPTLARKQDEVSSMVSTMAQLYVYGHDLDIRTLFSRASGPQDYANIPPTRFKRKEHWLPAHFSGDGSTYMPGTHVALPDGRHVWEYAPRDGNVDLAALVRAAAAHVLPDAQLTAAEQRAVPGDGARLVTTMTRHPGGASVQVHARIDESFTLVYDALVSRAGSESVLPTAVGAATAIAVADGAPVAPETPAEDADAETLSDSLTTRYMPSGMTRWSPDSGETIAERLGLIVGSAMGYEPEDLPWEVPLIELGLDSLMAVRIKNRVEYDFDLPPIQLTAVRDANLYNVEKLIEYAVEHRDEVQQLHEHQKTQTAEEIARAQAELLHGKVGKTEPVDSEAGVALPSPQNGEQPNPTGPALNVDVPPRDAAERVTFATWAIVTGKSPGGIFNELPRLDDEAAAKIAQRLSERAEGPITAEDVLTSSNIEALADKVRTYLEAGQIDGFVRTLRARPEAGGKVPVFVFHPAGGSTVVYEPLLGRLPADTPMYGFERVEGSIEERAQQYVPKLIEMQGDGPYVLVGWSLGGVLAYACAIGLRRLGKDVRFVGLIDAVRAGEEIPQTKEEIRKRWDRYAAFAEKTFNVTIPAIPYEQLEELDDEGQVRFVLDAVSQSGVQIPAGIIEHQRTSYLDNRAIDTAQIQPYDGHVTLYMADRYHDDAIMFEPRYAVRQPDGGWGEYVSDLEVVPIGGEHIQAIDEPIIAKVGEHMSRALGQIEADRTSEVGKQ
UniProt Q8IDJ8, 1-583: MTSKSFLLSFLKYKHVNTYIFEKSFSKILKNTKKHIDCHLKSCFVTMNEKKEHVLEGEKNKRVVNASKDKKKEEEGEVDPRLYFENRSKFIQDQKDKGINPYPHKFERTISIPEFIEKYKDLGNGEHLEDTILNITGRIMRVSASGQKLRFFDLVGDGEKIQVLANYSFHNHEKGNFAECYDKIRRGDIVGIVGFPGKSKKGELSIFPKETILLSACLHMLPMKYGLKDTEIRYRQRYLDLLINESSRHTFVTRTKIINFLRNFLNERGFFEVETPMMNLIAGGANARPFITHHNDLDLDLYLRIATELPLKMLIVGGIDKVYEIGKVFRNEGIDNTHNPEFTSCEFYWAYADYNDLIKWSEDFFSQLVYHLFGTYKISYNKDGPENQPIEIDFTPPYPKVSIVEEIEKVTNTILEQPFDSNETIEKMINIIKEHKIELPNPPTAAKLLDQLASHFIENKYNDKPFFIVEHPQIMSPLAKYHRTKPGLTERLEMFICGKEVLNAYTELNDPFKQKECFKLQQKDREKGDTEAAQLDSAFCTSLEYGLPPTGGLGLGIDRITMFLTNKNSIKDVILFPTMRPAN

Source: ChEMBL document CHEMBL3988442, “University of Dundee, Small-Polar-MMV Screening Library” (2021).

Results are given as percent effect. The controls that fix the scale are not given in the record; negative values are as filed. This is an unselected part of the compounds tested.

MtTrpRS: 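Tryptophan-tRNA ligase, Mycobacterium tuberculosis (UniProt P9WFT3). Enzyme assay of tryptophanyl-tRNA synthetase; the read-out is not stated. Concentration: 10 µM. Higher most likely means stronger inhibition; the record gives no direction and few retests gave an IC50. Of about 65,000 compounds tested this way, about 64 (0.098%) reached 50% or more in at least one test.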
ClpP1P2: 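ClpP1P2, Mycobacterium tuberculosis (UniProt P9WPC5 and UniProt P9WPC3). Protease assay of ClpP1P2, read by the AMC dye that it sets free. Tested at 50 µM. Direction is inferred from only a few compounds that gave an IC50; most scored high, so higher reads as stronger inhibition. Most other retested compounds had strongly negative values. About 69,000 compounds were tested under these conditions; 0.015% (about 10) showed 50% or more at least once.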
Pks13 thioesterase: 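Polyketide synthase Pks13, Mycobacterium tuberculosis (UniProt I6X8D2). Enzyme assay of the thioesterase domain of polyketide synthase 13; the read-out is not stated. Compounds at 30 µM. Higher reads as stronger inhibition (inferred from which compounds were picked for retests). Size under these conditions: about 67,000 compounds, about 300 of them at 50% or above in at least one test.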
PfKRS1: 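Lysine-tRNA ligase, Plasmodium falciparum 3D7 (UniProt Q8IDJ8). Enzyme assay of the cytosolic lysyl-tRNA synthetase in 384-well plates, read by luminescence. Tested at 30 µM. Higher reads as stronger inhibition, judged from the few compounds that gave an IC50. Of about 69,000 compounds tested this way, about 49 (0.071%) reached 50% or more in at least one test.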

* CN(C)CCn1nc(C2CCN(S(=O)(=O)N(C)C)C2)c2cccnc21 (centres undefined) : MtTrpRS: -8.548%; ClpP1P2: -17.69%; Pks13 thioesterase: -5.531%; PfKRS1: 0.5201%
* NCC(=O)N1CCCC(O)(CN2CCN(c3ccccc3)CC2)CC1 (centres undefined) : MtTrpRS: -4.28%; ClpP1P2: 21%; Pks13 thioesterase: -0.05675%; PfKRS1: 1.22%
* Cc1nc(N2CCCC2)nc2c1CCN(Cc1ccsc1)CC2 : MtTrpRS: -1.614%; ClpP1P2: 5.41%; Pks13 thioesterase: 24.84%; PfKRS1: 1.599%
* O=C(N[C@H]1CC[C@H](O)CC1)c1ccc2nc(-c3ccccc3)cn2c1 : MtTrpRS: -1.432%; ClpP1P2: -14.64%; Pks13 thioesterase: -4.67%; PfKRS1: 2.455%
* CC(C)(C)c1ncc(C(=O)N2CCC(N3CCSCC3)CC2)c(O)n1 : MtTrpRS: -0.315%; ClpP1P2: -13.16%; Pks13 thioesterase: -1.538%; PfKRS1: 6.882%
* COc1ccc2c(c1)C(NCCc1ncc(C)s1)CCCO2 (centres undefined) : MtTrpRS: -0.4938%; ClpP1P2: -15.22%; Pks13 thioesterase: -22.97%; PfKRS1: -2.221%
* CO[C@@H]1CCN(Cc2cccs2)[C@H]1Cc1ccncc1 : MtTrpRS: -2.058%; ClpP1P2: -5.822%; Pks13 thioesterase: -18.1%; PfKRS1: -1.718%
* c1cc(CN2CCCCC2)cc(NCc2cc[nH]n2)c1 : MtTrpRS: -0.3632%; ClpP1P2: 6.675%; Pks13 thioesterase: -3.001%; PfKRS1: 5.473%
* COc1ccccc1CNC(=O)C[S+]([O-])Cc1cc(C)on1 (centres undefined) : MtTrpRS: 3.408%; ClpP1P2: -13.24%; Pks13 thioesterase: -58.3%; PfKRS1: -1.327%
* CCc1nc(C2CCCN(C(=O)c3ccccc3O)C2)no1 (centres undefined) : MtTrpRS: -2.302%; ClpP1P2: -19.38%; Pks13 thioesterase: -23.3%; PfKRS1: 1.12%
* CS(=O)(=O)Cc1nc(CN2CCCc3sccc3C2)cs1 : MtTrpRS: -5.121%; ClpP1P2: -2.128%; Pks13 thioesterase: -30.41%; PfKRS1: 4.641%
* Cc1ccc(Cl)cc1N1CCC(CNC(=O)CCn2ccnn2)C1 (centres undefined) : MtTrpRS: -3.489%; ClpP1P2: 9.725%; Pks13 thioesterase: 4.569%; PfKRS1: 3.188%
* CCc1cc(NC(=O)C(c2cccc(F)c2)N2CCOCC2)[nH]n1 (centres undefined) : MtTrpRS: -1.376%; ClpP1P2: 18.7%; Pks13 thioesterase: -15.16%; PfKRS1: 6.382%
* CCOCCCC(=O)Nc1ccc(OCc2noc(C3CC3)n2)cc1 : MtTrpRS: -3.685%; ClpP1P2: 6.222%; Pks13 thioesterase: -18.72%; PfKRS1: 8.493%
* COC(=O)[C@H]1CN(S(C)(=O)=O)CCN1S(C)(=O)=O : MtTrpRS: -3.087%; ClpP1P2: -4.358%; Pks13 thioesterase: -36.55%; PfKRS1: 4.366%
* c1cc(CNCc2ccc3c(c2)CCO3)cc(N2CCOCC2)n1 : MtTrpRS: -3.521%; ClpP1P2: 1.165%; Pks13 thioesterase: -0.1185%; PfKRS1: 2.59%
* CCC(=O)N1CCC2(CC1)CC(CC(=O)N(C)C)c1ccc(F)cc12 (centres undefined) : ClpP1P2: 15.5%; Pks13 thioesterase: -2.381%; PfKRS1: 3.255%
* CCN(CC)S(=O)(=O)N1CCCN(CC(=O)NC(C)C)CC1 : MtTrpRS: 7.295%; ClpP1P2: -6.753%; Pks13 thioesterase: 1.665%; PfKRS1: -2.319%
* N#CC(NC(=O)CCC(=O)NC1CCCC1)c1ccc(F)cc1F (centres undefined) : MtTrpRS: -1.331%; ClpP1P2: -17.41%; Pks13 thioesterase: -17.21%; PfKRS1: -0.23%
* CC(C)NC(=O)C1CN(C(=O)CCc2ccccc2)CC12CCOCC2 (centres undefined) : MtTrpRS: -0.2766%; ClpP1P2: 11.38%; Pks13 thioesterase: 11.46%; PfKRS1: -3.887%
* Cc1noc(-c2ccc(Oc3cccc(CN4CCCC4)c3F)nc2)n1 : MtTrpRS: -0.3221%; ClpP1P2: -9.814%; Pks13 thioesterase: -10.48%; PfKRS1: -1.636%
* CC(C)C1CCCN1CCCc1nc(-c2cccs2)no1 (centres undefined) : MtTrpRS: -9.605%; ClpP1P2: -29.93%; Pks13 thioesterase: 13.48%; PfKRS1: -0.7975%

The first 2 entries again:

{"compound": "CN(C)CCn1nc(C2CCN(S(=O)(=O)N(C)C)C2)c2cccnc21", "stereo": "centres undefined", "MtTrpRS": -8.548, "ClpP1P2": -17.69, "Pks13 thioesterase": -5.531, "PfKRS1": 0.5201}
{"compound": "NCC(=O)N1CCCC(O)(CN2CCN(c3ccccc3)CC2)CC1", "stereo": "centres undefined", "MtTrpRS": -4.28, "ClpP1P2": 21, "Pks13 thioesterase": -0.05675, "PfKRS1": 1.22}